Among the data in PubChem BioAssay AID2685 (National Center for Advancing Translational Sciences (NCATS), 2010) are cell number change and AC50 values, retold here.

The test is described as follows: qHTS Assay for Lipid Storage Modulators in Drosophila S3 Cells.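 For cell number change: cells counted by Cell Tracker Red CMTPX staining in the red channel.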 The note with it: BODIPY lipid droplet fluorescence, 18-24 h; for cell number change: measured here: cell count max response, cells fed with added oleic acid. In outline:
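Drosophila S3 cells loaded with oleic acid (400 uM, as added) and compounds at several concentrations; lipid droplets imaged by 488-nm laser-scanning cytometry, 500–530 nm intensity and object ratio to cell channel. Percent activity normalized to 20 uM Triacsin C.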

Where [1] appears, read: measured here: cell number channel AC50, cells fed with added oleic acid.
Where [2] appears, read: measured here: lipid fluorescence (Fed channel) AC50, cells fed with added oleic acid.

Some of the results follow. These are further read-outs of the screen, such as a control signal, another cell line or another target. No call is given for them. Most of these compounds were active or inconclusive in the main read-out, so they are no random draw. Words in brackets tell the shape of the fitted curve; partial curves, single points and poor fits give uncertain potencies.

On to `C=CCOC(=O)Cn1cnc2c(sc3nc(C)cc(C)c32)c1=O`, for which the cell number change was -26.3%.

`Cc1ccc(NC(=O)CSc2nccn2C)cc1F`: the cell number change was 7.57%.

Take `CC1=C(C(=O)Nc2ccccc2)C(c2ccncc2)C(C#N)=C(SCC(=O)Nc2ccccc2)N1` (stereo not drawn): the cell number change was 62.1%. Also, the AC50 (as a rule, the midpoint of the concentration-response curve, whichever way the signal moves) under setting [1] was 0.0103 µM [rising, full curve, poor fit].

Take `CCN(C1CCCCC1)S(=O)(=O)c1ccc(C(=O)O)cc1`: the cell number change is -98.8%. Under setting [1], the AC50 is 29.1 µM [falling, single point].

Take `CCCOc1ccc(C(=O)NC(C)C(=O)O)cc1` (stereo not drawn): the cell number change is 40.9%. The AC50 under setting [1] is 14.6 µM [rising, partial curve, poor fit].

Consider `COc1ccccc1-c1nnc2sc(COc3ccc(Cl)cc3Cl)nn12`, for which the cell number change was found to be 1.3%. In addition, the half-maximal activity concentration (AC50) under setting [2] was 2.59 µM [rising, single point].

As for `COc1ccc(C2c3c4c(n(C)c3CCN2C)CCN(C)C4c2ccc(OC)cc2)cc1` (stereo not drawn), the cell number change turned out to be 17.5%. The AC50 under setting [2] was 4.11 µM [falling, single point].

For `COc1ccnc(N=CNOCc2cccc(Cl)c2Cl)c1C#N`, the cell number change was found to be 80.8%. For the same compound, the AC50 under setting [2] was 1.64 µM [rising, full curve].

Take `COc1cc(C(=O)OCC(=O)NCCN2C(=O)CSC2=O)ccc1OCc1c(C)noc1C`: the cell number change is -20.4%. Also, the AC50 under setting [2] is 0.58 µM [falling, single point].

Regarding `COCCN(C(=O)CSc1nc2ccccc2c(=O)n1CC(C)C)c1c(N)n(Cc2ccccc2)c(=O)[nH]c1=O`, the cell number change was -29.8%. Further, the AC50 under setting [2] was 29.1 µM [falling, single point].

As for `CN(Cc1ccco1)C(=O)C1CCN(c2nnc(-n3cccc3)s2)CC1`, the AC50 under setting [2] is 3.26 µM [rising, partial curve].

For the compound `CC(C)CNS(=O)(=O)c1ccc(CCC(=O)NC2CCCC2)cc1`, the cell number change was determined as 46.5%. The AC50 under setting [2] is 16.4 µM [rising, partial curve].

Regarding `O=C(O)c1ccc(OC2CSC2)cc1`, the cell number change came out at 10.2%. For the same compound, under setting [2], the AC50 is 0.082 µM [falling, full curve, poor fit].

For `CC(C)=CC(=O)Nc1ccccc1C(N)=O`, the cell number change is 0.963%. Under setting [1], the half-maximal activity concentration (AC50) is 0.0517 µM [falling, partial curve, poor fit].

Turning to `CCOC(=O)c1[nH]c(C)c(C(=O)OCc2ccc(C)cc2)c1C`, the cell number change was -12.4%. The AC50 under setting [2] is 6.51 µM [rising, partial curve].

Turning to `O=C(CSc1ccccc1)Nc1ccccc1C(=O)N1CCCC1`, the cell number change was 7.28%.

In the case of `CCOc1ccc(NC(=O)CCN2C(=O)c3ccccc3C2=O)cc1`, the cell number change was found to be 38.5%. The concentration at half-maximal activity (AC50) under setting [1] is 29.1 µM [rising, single point]. Also, the half-maximal activity concentration (AC50) under setting [2] was 6.51 µM [rising, partial curve, poor fit].

Turning to `CC(=O)c1ccc(NC(=S)NCC(c2ccco2)N2CCCC2)cc1` (stereo not drawn), the cell number change was found to be 51.9%. In addition, under setting [1], the AC50 is 6.51 µM [rising, full curve].
